Data taken from ChEMBL document CHEMBL3988442, “University of Dundee, Small-Polar-MMV Screening Library” (2021).

By UniProt entry, the sequences of proteins in these tests, tags left out. Residues count along the entry.
UniProt A4I591, 1-473: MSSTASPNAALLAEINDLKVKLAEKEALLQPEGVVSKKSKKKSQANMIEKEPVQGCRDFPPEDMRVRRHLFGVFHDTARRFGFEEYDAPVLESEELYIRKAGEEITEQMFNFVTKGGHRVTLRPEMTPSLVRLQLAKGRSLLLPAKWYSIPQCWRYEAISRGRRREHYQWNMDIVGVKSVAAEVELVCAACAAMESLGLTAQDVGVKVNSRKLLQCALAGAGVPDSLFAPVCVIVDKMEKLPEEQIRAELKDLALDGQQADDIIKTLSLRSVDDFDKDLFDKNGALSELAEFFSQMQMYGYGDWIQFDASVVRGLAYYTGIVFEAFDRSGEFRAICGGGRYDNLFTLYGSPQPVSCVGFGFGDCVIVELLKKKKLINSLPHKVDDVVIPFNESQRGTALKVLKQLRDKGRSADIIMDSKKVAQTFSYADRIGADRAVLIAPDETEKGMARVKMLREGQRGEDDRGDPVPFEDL
UniProt P9WNZ1, whole entry: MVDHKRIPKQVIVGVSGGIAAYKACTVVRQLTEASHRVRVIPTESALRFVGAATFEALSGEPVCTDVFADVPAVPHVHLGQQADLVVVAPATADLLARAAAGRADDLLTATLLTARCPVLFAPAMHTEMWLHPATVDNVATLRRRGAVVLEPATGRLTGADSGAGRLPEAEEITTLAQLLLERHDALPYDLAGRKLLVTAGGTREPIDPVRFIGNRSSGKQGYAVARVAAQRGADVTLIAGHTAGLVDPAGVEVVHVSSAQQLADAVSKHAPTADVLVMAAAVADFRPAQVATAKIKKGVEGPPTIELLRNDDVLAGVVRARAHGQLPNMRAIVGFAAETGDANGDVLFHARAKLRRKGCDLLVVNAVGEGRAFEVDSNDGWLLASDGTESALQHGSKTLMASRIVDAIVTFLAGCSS
UniProt P9WFT3, whole entry: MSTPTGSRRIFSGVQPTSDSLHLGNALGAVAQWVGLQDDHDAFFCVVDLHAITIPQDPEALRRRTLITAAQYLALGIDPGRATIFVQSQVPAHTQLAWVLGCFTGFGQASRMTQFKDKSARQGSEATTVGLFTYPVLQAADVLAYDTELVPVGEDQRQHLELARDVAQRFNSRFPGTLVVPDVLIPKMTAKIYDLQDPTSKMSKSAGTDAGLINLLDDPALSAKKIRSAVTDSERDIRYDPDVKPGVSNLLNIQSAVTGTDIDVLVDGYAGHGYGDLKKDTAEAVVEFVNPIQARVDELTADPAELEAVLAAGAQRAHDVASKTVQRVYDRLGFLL

Values are the deposited “Percent Effect”, in %.
The controls that fix the scale are not given in the record; negative values are as filed.
This is an unselected part of the compounds tested.
A dash means the value is not listed here; it may have been measured.

LiHisRS: 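Enzyme assay of histidyl-tRNA synthetase; the read-out is not stated. Target: Histidine-tRNA ligase, Leishmania infantum (UniProt A4I591). Compounds at 30 µM. Higher reads as stronger inhibition (inferred: compounds with an IC50 in retests scored well above the rest). The assay is labelled LdHisRS but filed under L. infantum. About 69,000 compounds were tested under these conditions; 0.6% (about 410) showed 50% or more at least once.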
CoaBC: 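Enzyme assay of CoaBC with a phosphate dye (Biomol Green) read at 650 nm. Target: Coenzyme A biosynthesis protein CoaBC, Mycobacterium tuberculosis (UniProt P9WNZ1). Concentration: 30 µM. Higher reads as stronger inhibition, judged from the few compounds that gave an IC50. Most strong results did not repeat in a second test. Size under these conditions: about 67,000 compounds, about 40 of them at 50% or above in at least one test.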
MtTrpRS: 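Enzyme assay of tryptophanyl-tRNA synthetase; the read-out is not stated. Target: Tryptophan-tRNA ligase, Mycobacterium tuberculosis (UniProt P9WFT3). Concentration: 10 µM. Higher most likely means stronger inhibition; the record gives no direction and few retests gave an IC50. About 65,000 compounds were tested under these conditions; 0.098% (about 64) showed 50% or more at least once.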

Compound	LiHisRS	CoaBC	MtTrpRS
CC(C)N1C(=O)CC(NC(=O)c2cc(Cl)sc2Cl)C1=O (configuration not stated)	8.824	6.925	0.6937
O=S1(=O)CCC(n2cc(CNCC3(c4ccccc4)CC3)cn2)C1 (configuration not stated)	2.857	-	9.391
Cc1nc(CN2CCOCC3(CCN(c4ncccn4)CC3)C2)cs1	29.63	-1.921	5.398
COc1ccc(OCCN(C)S(=O)(=O)c2cnn(C)c2)cc1	12.39	1.952	1.434
CCN(CC)S(=O)(=O)N1C[C@@H]2CC[C@H](C1)N(Cc1cscn1)C2=O	17.6	-1.22	-1.204
Cc1ccc(CN2CCO[C@H]3[C@@H](OCc4cccnc4)CC[C@@H]32)o1	-125.2	1.98	-
CC1N(c2cnn(C)c2)C(=O)COC12CCN(Cc1ccoc1)CC2 (configuration not stated)	5.769	3.515	-
COc1ncccc1C(=O)N1CC(c2nc(-c3cccs3)no2)C1	15.25	1.882	-2.603
O=C(NCC1CCC2(CC1)OCCO2)c1ccncc1F	16.88	6.329	2.103
Cc1cc(NC(=O)CN2CCOC(Cn3nc(C)cc3C)C2)n(C)n1 (configuration not stated)	9.917	10.15	1.546
CN(C)CCN1CCc2ncc(CN(C)Cc3ccco3)n2CC1	-3.419	-	11.92
COCc1nc(CNc2cccc(-c3csc(C)n3)c2)cs1	-6.667	-3.186	-2.593
Cc1ccc(NC2CCN(C(=O)COc3cccnc3)CC2)nn1	24.32	8.355	-0.4873
Cc1nc(C(=O)N2CCC(Nc3cccnn3)CC2)cs1	32	12.05	3.362
Cc1nnc([C@H]2CC[C@@H]3[C@@H](CCN3Cc3c(C)noc3C)O2)o1	9.434	1.396	0.3148
Cc1cccc(COc2ccc(C(C)N)cc2)c1 (configuration not stated)	20	-21.04	-9.235
Cc1cc(-c2cnc(C)nc2CN(C)C(=O)c2ccccn2)on1	2.069	-0.3708	-8.157
COCCN1CCC(CNC(=O)CCc2cc(F)ccc2F)C1 (configuration not stated)	18	0.9901	0.4841
O=C1Nc2ccccc2CNC12CCN(CC1CCCC1)CC2	4.138	-1.579	-3.371
Cc1nonc1CN(C)c1nc(-c2cccnc2)nc2c1CCNC2	67.54	17.39	-0.6744
O=C(c1ccco1)N1CCCC2(CCN(c3nncs3)C2)C1 (configuration not stated)	17.12	1.733	-
Cc1ccc(SCC(=O)NS(=O)(=O)c2ccc3c(c2)OCCO3)cc1	20	-1.862	0.3145
COc1cccc(-c2nc3c([nH]2)CCNC3)c1F	5.263	-2.419	-7.173
CC(C)CCC(=O)N1CCC(c2nnc(CN(C)CCO)n2C)CC1	-2.083	1.285	-5.74
CCCc1cc(C(=O)NCCN2C(=O)c3ccccc3C2=O)[nH]n1	20.97	2.297	-2.571
N#Cc1cc(F)ccc1CN1CCCCC1Cn1cccn1 (configuration not stated)	25.45	5.102	-3.955
Cc1ncncc1C(=O)N1CCOC(C(=O)NC2CCCC2)C1 (configuration not stated)	14.18	-0.3681	-4.197
O=C1C(Nc2ccc3nccnc3n2)CCN1c1ccccc1 (configuration not stated)	5.263	6.048	0.1211
CCC(CNC(=O)Cc1c(C)noc1C)N1CCCC1 (configuration not stated)	14.89	5.955	-0.5711
Cc1ncc(Cl)c(C(=O)N2CC(=O)N(C)c3ccccc32)n1	17.02	-1.985	0.9518
CCN(CC)C(CNS(=O)(=O)c1ccc(C(=O)NC)cc1)c1ccco1 (configuration not stated)	15.38	0.6211	0.5629
CNC(=O)C(CCSC)NC(=O)c1ccc2ccccc2n1 (configuration not stated)	1.333	3.306	-6.808
CN1CCN(C(=O)c2cc(C#N)cs2)c2ccccc2C1	-7.143	6.352	-5.415
CCCn1nc2c(cc1=O)CN(CCCS(N)(=O)=O)CC2	61.9	2.254	-0.7042
COCC(=O)N1CC[C@H]2O[C@@H](C)C[C@H]2C1	12	2.5	-3.597
CN(C)CCNc1cc(-c2ncccn2)c2cc[nH]c2n1	6.25	-32.32	0.000009
CCn1ccnc1CN1CCN(CC(O)c2cccc(F)c2)CC1 (configuration not stated)	9.735	4.439	1.505
Cc1[nH]c2c(F)cccc2c1CC(=O)N1CCCC(N)CC1 (configuration not stated)	10.83	2.112	-0.8683

2 of the entries, repeated:

Compound,LiHisRS,CoaBC,MtTrpRS
Cc1cc(-c2cnc(C)nc2CN(C)C(=O)c2ccccn2)on1,2.069,-0.3708,-8.157
COCC(=O)N1CC[C@H]2O[C@@H](C)C[C@H]2C1,12,2.5,-3.597